Assay results: the supplement of paper PMC6411743
± gives the standard deviation of the averaged measurements. This is one part of the list.

Amino acid sequences for entries named in this document (tags omitted). A change or cut given only in a name is not applied to a line headed by its entry.
UniProt Q7Z6L1: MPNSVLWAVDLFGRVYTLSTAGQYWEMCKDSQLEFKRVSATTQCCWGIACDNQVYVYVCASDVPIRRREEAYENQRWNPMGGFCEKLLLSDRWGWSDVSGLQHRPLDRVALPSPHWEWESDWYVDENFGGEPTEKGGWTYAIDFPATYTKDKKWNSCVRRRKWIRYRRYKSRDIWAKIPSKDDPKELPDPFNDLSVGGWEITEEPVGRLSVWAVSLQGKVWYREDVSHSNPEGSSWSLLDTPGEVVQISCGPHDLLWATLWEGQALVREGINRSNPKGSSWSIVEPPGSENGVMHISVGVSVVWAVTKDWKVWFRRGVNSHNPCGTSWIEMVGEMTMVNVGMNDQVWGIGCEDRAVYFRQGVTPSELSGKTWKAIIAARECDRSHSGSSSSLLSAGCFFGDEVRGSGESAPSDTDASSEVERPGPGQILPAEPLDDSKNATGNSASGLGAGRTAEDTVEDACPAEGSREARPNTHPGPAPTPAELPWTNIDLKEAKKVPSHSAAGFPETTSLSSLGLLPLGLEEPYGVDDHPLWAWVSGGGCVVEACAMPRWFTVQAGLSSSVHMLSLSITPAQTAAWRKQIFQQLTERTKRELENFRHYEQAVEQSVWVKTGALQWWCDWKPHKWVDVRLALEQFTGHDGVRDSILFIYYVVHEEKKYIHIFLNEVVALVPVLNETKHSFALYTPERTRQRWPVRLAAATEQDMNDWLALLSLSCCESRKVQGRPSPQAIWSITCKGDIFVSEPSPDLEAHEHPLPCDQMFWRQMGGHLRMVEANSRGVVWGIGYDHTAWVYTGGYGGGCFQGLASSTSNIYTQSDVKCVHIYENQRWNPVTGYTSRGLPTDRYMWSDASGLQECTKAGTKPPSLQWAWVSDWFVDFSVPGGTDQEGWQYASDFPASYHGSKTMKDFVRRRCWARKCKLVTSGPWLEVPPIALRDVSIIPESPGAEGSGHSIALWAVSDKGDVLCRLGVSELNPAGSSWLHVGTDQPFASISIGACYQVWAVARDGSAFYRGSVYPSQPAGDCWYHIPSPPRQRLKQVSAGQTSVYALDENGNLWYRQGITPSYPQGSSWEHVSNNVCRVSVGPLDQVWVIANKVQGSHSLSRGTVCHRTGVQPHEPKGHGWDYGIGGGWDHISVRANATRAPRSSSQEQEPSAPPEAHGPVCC
UniProt Q86U90: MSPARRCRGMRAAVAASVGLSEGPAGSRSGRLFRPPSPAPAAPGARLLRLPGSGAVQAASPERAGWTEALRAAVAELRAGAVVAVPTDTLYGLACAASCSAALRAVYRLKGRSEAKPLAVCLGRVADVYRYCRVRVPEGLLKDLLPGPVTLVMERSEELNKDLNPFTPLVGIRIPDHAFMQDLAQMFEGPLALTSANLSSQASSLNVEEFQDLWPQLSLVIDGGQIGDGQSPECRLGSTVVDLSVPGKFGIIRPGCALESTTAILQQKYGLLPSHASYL
UniProt Q7L5Y1: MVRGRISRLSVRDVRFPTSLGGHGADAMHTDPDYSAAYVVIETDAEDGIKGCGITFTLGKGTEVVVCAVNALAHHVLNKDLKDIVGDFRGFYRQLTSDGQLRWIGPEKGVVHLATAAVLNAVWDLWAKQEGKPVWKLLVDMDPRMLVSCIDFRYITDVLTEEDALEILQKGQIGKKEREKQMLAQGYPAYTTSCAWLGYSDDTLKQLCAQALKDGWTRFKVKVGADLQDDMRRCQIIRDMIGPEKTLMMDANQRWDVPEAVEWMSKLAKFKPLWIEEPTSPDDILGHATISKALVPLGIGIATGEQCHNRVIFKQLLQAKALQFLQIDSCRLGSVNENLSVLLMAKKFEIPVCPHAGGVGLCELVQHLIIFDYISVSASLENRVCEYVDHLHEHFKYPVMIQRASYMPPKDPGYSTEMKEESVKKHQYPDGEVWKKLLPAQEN
UniProt Q7Z6B0: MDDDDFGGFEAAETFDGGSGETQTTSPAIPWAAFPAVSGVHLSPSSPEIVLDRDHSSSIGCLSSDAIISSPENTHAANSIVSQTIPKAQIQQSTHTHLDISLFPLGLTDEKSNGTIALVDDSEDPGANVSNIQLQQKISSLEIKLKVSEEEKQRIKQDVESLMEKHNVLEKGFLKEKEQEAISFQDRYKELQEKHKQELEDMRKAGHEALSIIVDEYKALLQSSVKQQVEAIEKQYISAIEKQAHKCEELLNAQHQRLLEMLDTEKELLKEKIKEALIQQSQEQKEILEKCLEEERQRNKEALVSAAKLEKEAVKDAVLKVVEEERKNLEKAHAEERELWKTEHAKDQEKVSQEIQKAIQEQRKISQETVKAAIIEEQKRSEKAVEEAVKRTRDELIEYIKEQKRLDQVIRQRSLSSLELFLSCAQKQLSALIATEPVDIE
UniProt Q6NUQ4: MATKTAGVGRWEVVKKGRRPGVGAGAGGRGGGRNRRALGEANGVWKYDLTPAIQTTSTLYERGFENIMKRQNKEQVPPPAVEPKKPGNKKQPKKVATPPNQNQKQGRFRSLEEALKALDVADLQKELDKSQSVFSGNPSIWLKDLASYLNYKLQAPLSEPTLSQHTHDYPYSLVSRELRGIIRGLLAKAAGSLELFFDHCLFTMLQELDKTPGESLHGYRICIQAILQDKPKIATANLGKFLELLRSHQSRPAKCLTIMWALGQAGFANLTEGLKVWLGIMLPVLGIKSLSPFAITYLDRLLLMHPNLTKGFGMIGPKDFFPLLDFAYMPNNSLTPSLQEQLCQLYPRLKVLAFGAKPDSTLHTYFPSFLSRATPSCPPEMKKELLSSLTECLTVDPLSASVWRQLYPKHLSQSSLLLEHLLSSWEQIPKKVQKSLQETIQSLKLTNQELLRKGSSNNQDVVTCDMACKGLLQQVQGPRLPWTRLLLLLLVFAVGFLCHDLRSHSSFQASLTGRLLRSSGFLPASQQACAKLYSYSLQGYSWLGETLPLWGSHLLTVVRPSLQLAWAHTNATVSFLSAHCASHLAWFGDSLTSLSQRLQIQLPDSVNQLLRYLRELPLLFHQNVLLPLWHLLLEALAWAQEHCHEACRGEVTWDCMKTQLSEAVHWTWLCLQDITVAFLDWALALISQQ
UniProt Q6PI48: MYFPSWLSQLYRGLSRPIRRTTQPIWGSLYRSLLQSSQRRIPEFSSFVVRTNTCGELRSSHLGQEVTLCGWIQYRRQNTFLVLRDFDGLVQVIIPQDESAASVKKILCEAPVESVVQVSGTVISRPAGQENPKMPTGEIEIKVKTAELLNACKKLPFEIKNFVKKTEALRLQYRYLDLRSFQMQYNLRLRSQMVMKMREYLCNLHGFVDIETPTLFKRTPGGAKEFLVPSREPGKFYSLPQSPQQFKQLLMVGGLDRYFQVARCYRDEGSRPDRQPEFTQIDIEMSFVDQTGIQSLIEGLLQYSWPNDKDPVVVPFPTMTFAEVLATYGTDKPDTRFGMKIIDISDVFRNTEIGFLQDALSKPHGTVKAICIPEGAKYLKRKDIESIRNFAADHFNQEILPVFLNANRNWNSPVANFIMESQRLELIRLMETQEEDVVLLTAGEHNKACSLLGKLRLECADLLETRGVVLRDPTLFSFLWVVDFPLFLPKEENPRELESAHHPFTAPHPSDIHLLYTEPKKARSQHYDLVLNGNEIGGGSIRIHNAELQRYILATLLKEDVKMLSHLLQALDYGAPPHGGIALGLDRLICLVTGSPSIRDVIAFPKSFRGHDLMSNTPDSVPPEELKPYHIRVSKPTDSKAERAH
UniProt Q6NZY4: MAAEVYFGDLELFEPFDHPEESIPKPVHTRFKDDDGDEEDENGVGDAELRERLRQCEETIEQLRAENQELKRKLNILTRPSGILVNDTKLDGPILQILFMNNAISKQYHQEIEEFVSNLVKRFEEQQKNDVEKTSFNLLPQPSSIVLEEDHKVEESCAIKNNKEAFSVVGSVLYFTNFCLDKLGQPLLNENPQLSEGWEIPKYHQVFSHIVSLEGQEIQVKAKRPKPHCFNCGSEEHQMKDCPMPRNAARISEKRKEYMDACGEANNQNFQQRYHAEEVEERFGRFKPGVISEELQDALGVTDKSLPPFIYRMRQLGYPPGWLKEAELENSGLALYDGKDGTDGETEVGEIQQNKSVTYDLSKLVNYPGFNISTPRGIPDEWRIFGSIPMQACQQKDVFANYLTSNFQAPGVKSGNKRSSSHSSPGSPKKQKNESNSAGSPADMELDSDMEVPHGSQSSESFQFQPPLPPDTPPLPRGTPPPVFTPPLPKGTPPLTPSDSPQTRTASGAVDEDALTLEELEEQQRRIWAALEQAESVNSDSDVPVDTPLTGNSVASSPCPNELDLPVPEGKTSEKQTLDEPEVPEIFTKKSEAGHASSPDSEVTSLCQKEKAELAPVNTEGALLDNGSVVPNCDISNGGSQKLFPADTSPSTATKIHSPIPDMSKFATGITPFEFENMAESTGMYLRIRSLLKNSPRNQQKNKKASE
UniProt Q6P1N0: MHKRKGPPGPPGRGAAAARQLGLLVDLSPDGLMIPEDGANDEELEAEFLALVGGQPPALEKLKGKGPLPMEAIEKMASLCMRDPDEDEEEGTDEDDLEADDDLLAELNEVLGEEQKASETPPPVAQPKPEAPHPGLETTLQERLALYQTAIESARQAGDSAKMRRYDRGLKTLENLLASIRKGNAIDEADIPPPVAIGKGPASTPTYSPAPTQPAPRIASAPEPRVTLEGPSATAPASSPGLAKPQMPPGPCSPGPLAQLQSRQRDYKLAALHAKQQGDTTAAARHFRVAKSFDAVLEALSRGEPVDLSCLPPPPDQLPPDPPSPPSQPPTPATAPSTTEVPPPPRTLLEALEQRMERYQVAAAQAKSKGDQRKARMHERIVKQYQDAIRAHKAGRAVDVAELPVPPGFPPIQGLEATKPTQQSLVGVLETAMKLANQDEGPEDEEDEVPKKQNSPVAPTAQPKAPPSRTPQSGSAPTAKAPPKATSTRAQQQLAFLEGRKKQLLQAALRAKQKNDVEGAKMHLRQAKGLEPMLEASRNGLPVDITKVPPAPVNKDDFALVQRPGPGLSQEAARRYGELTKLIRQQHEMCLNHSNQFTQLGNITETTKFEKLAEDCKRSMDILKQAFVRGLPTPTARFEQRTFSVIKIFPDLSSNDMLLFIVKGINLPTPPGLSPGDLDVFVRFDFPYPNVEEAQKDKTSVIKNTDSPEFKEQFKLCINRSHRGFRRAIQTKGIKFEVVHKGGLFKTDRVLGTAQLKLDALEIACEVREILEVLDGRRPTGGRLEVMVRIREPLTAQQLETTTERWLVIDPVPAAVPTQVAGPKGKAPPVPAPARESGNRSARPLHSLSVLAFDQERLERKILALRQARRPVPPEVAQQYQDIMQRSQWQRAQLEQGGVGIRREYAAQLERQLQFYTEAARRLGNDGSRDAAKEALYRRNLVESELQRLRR
UniProt Q5VWJ9: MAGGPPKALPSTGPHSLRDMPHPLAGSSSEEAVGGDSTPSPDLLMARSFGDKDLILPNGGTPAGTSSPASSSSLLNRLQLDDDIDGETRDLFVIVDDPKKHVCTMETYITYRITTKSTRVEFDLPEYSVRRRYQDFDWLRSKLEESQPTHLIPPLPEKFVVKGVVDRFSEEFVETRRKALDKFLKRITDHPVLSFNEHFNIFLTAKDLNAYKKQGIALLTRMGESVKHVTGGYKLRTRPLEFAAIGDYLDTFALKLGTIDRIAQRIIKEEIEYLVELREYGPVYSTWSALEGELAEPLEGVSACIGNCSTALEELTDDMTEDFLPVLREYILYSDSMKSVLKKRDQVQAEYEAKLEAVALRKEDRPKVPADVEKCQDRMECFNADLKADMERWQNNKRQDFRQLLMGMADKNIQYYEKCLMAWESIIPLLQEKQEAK
UniProt Q684P5: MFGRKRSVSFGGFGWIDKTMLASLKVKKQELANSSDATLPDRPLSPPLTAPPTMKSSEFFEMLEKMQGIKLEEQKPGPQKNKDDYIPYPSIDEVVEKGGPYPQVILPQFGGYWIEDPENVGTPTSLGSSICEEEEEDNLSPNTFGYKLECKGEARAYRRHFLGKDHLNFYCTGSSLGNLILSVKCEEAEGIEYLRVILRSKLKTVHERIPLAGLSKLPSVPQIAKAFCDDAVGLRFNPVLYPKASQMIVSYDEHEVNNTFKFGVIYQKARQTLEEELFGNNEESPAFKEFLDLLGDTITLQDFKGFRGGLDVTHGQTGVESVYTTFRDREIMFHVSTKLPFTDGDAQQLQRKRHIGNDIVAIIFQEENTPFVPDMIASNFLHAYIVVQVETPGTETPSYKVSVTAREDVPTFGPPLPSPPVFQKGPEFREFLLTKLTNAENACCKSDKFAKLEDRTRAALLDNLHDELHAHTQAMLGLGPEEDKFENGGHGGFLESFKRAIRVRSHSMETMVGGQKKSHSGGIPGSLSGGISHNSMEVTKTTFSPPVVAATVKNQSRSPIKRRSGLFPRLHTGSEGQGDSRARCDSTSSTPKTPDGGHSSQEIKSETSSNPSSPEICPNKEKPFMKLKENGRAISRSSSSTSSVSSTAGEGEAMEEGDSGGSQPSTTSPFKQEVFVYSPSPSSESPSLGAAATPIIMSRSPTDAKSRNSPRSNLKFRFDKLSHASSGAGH

Compound: Nc1nc2c(ncn2[C@@H]2O[C@H](COP(=O)(O)OP(=O)(O)OP(=O)(O)O)[C@@H](O)[C@H]2O)c(=O)[nH]1 [guanosine triphosphate]
Assay: NP40-soluble protein abundance relative to vehicle (solubility fold change) (ratio); higher = more soluble protein in presence of GTP
How it was run: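 Jurkat crude lysate prepared with a Dounce homogeniser was treated at eight concentrations spanning 0.1 to 10 mM, 10 min at room temperature then 3 min at 37 °C. Solubilisation with 0.8% NP40 and benzonase and ultracentrifugation preceded TMT labelling of the supernatant for LC-MS/MS. Fold change against the detergent-processed vehicle was determined per replicate from vsn-normalised intensities, across three independent experiments.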

Row | Target | NP40-soluble protein abundance (concentration: 0.1mM) | NP40-soluble protein abundance (concentration: 0.5mM) | NP40-soluble protein abundance (concentration: 1mM) | NP40-soluble protein abundance (concentration: 2mM) | NP40-soluble protein abundance (concentration: 4mM) | NP40-soluble protein abundance (concentration: 6mM) | NP40-soluble protein abundance (concentration: 8mM) | NP40-soluble protein abundance (concentration: 10mM)
1 | UniProt Q7Z7F0 and related entries | 0.933 ± 0.019 | 0.93 ± 0.036 | 0.968 ± 0.038 | 0.939 ± 0.1 | 0.913 ± 0.065 | 0.915 ± 0.098 | 0.941 ± 0.077 | 0.941 ± 0.053
2 | UniProt Q86WJ1 and related entries | 0.992 ± 0.051 | 0.998 ± 0.052 | 0.931 ± 0.083 | 0.913 ± 0.053 | 0.913 ± 0.069 | 0.899 ± 0.058 | 0.877 ± 0.084 | 0.842 ± 0.076
3 | SETD3 (UniProt Q86TU7) | 1.05 ± 0.028 | 1.03 ± 0.018 | 0.976 ± 0.04 | 0.992 ± 0.066 | 0.977 ± 0.075 | 0.963 ± 0.02 | 0.995 ± 0.03 | 0.971 ± 0.054
4 | UniProt Q7Z6L1 and related entries | 0.924 ± 0.024 | 1.07 ± 0.049 | 0.926 ± 0.022 | 1.06 ± 0.1 | 0.917 ± 0.084 | 1.05 ± 0.091 | 0.913 ± 0.08 | 1.05 ± 0.043
5 | YRDC (UniProt Q86U90) | 0.989 ± 0.041 | 0.952 ± 0.022 | 0.949 ± 0.027 | 0.943 ± 0.015 | 0.946 ± 0.041 | 0.899 ± 0.026 | 0.871 ± 0.07 | 0.916 ± 0.055
6 | UniProt Q7L5Y1 and related entries | 0.98 ± 0.083 | 0.984 ± 0.06 | 0.919 ± 0.049 | 0.914 ± 0.055 | 0.9 ± 0.18 | 0.889 ± 0.038 | 0.861 ± 0.18 | 0.86 ± 0.2
7 | UniProt Q6ICB0 | 0.87 ± 0.16 | 0.864 ± 0.18 | 0.876 ± 0.084 | 0.824 ± 0.13 | 0.801 ± 0.12 | 0.83 ± 0.16 | 0.757 ± 0.098 | 0.779 ± 0.11
8 | DNMBP (UniProt Q6XZF7) | 1.09 ± 0.044 | 1.02 ± 0.052 | 1.06 ± 0.031 | 1.02 ± 0.044 | 1.03 ± 0.069 | 1.01 ± 0.071 | 1.04 ± 0.022 | 0.947 ± 0.067
9 | UniProt Q7Z6B0 and related entries | 0.942 ± 0.046 | 0.925 ± 0.052 | 0.918 ± 0.087 | 0.923 ± 0.076 | 0.89 ± 0.075 | 0.923 ± 0.069 | 0.914 ± 0.069 | 0.976 ± 0.061
10 | UniProt Q86TI0 and related entries | 1.02 ± 0.067 | 1 ± 0.098 | 0.993 ± 0.096 | 0.969 ± 0.057 | 0.985 ± 0.06 | 0.971 ± 0.055 | 0.978 ± 0.11 | 0.929 ± 0.086
11 | UniProt Q6NXT6 and related entries | 1.01 ± 0.035 | 0.994 ± 0.044 | 0.983 ± 0.054 | 0.956 ± 0.045 | 0.971 ± 0.066 | 0.951 ± 0.053 | 0.999 ± 0.06 | 0.948 ± 0.079
12 | CES3 (UniProt Q6UWW8) | 1.093 ± 0.0059 | 1.09 ± 0.11 | 1.1616 ± 0.00041 | 1.13 ± 0.023 | 1.03 ± 0.057 | 0.993 ± 0.026 | 1.01 ± 0.11 | 0.982 ± 0.025
13 | UniProt Q86TN4 and related entries | 1.08 ± 0.042 | 1.01 ± 0.026 | 1.07 ± 0.045 | 1.06 ± 0.034 | 1.09 ± 0.038 | 1.07 ± 0.045 | 1.11 ± 0.035 | 1.1 ± 0.034
14 | CEP350 (UniProt Q5VT06) | 0.9783 ± 0.0029 | 1.039 ± 0.0076 | 0.9907 ± 0.003 | 1.06 ± 0.06 | 1.02 ± 0.078 | 0.996 ± 0.04 | 0.957 ± 0.041 | 1.083 ± 0.0084
15 | UniProt Q6NUQ4 and related entries | 1 ± 0.034 | 0.991 ± 0.039 | 0.968 ± 0.05 | 0.978 ± 0.037 | 0.995 ± 0.031 | 0.987 ± 0.054 | 1.01 ± 0.069 | 1.03 ± 0.088
16 | DARS2 (UniProt Q6PI48) | 1.02 ± 0.046 | 1.05 ± 0.053 | 0.894 ± 0.015 | 0.925 ± 0.077 | 0.911 ± 0.042 | 0.904 ± 0.036 | 0.879 ± 0.031 | 0.864 ± 0.064
17 | ZCCHC8 (UniProt Q6NZY4) | 1 ± 0.031 | 1.03 ± 0.026 | 1.12 ± 0.072 | 1.15 ± 0.092 | 1.21 ± 0.13 | 1.25 ± 0.15 | 1.31 ± 0.23 | 1.32 ± 0.27
18 | IRF2BP2 (UniProt Q7Z5L9) | 0.949 ± 0.018 | 0.934 ± 0.05 | 0.997 ± 0.0063 | 0.99 ± 0.035 | 0.981 ± 0.034 | 0.96 ± 0.062 | 0.999 ± 0.049 | 1.02 ± 0.025
19 | METTL3 (UniProt Q86U44) | 0.967 ± 0.058 | 1.01 ± 0.061 | 0.969 ± 0.062 | 0.948 ± 0.076 | 0.911 ± 0.06 | 0.932 ± 0.058 | 0.92 ± 0.085 | 0.931 ± 0.063
20 | UniProt Q6P1N0 and related entries | 1.01 ± 0.062 | 0.997 ± 0.052 | 0.977 ± 0.037 | 0.969 ± 0.05 | 0.973 ± 0.039 | 0.971 ± 0.034 | 0.962 ± 0.033 | 0.968 ± 0.057
21 | UniProt Q6UN15 and related entries | 0.987 ± 0.086 | 1.09 ± 0.026 | 1.207 ± 0.0064 | 1.21 ± 0.052 | 1.267 ± 0.0056 | 1.329 ± 0.0046 | 1.38 ± 0.1 | 1.35 ± 0.093
22 | UniProt Q86TP1 and related entries | 0.954 ± 0.041 | 0.991 ± 0.085 | 0.946 ± 0.046 | 0.964 ± 0.12 | 0.918 ± 0.1 | 0.936 ± 0.1 | 0.938 ± 0.059 | 0.913 ± 0.091
23 | GPR180 (UniProt Q86V85) | 1.09 ± 0.037 | 0.991 ± 0.059 | 0.982 ± 0.025 | 0.988 ± 0.075 | 1.034 ± 0.0034 | 1 ± 0.018 | 1.01 ± 0.067 | 0.964 ± 0.052
24 | SNX30 (UniProt Q5VWJ9) | 1.29 ± 0.17 | 1.11 ± 0.15 | 1.11 ± 0.015 | 1.12 ± 0.091 | 1.1 ± 0.088 | 0.996 ± 0.06 | 1.1 ± 0.077 | 1.03 ± 0.037
25 | UniProt Q7Z2Z2 | 1.02 ± 0.041 | 1.01 ± 0.015 | 0.955 ± 0.037 | 0.944 ± 0.044 | 0.93 ± 0.052 | 0.944 ± 0.035 | 0.91 ± 0.037 | 0.91 ± 0.044
26 | UniProt Q684P5 and related entries | 0.998 ± 0.014 | 0.997 ± 0.027 | 0.94 ± 0.031 | 0.943 ± 0.043 | 0.935 ± 0.025 | 0.937 ± 0.032 | 0.932 ± 0.047 | 0.921 ± 0.023
27 | UniProt Q7Z2T5 | 1.05 ± 0.05 | 1.09 ± 0.014 | 1.08 ± 0.035 | 1.21 ± 0.059 | 1.32 ± 0.072 | 1.42 ± 0.08 | 1.44 ± 0.059 | 1.57 ± 0.024
28 | UniProt Q86UY6 | 1.1 ± 0.034 | 1.17 ± 0.015 | 1.25 ± 0.032 | 1.38 ± 0.035 | 1.51 ± 0.1 | 1.56 ± 0.069 | 1.63 ± 0.04 | 1.62 ± 0.18

Individual results from the results shown.
For NP40-soluble protein abundance (concentration: 4mM), DARS2 (UniProt Q6PI48) has 0.911 ± 0.042
For NP40-soluble protein abundance (concentration: 10mM), YRDC (UniProt Q86U90) has 0.916 ± 0.055
